For test [1], the system named is passive cutaneous anaphylaxis reaction. Description: Passive Cutaneous Anaphylaxis Test (PCA), topical antiallergic activity. It counts as in vivo, Male Sprague Dawley rats. The source says:
Male Sprague Dawley rats (175-200 grams) were sensitized intradermally with 0.1 cc of high dilution of antiovalbumin antiserum (IgE-containing) that was predetermined to cause a well circumscribed and reproducible skin wheal response. Two intradermal sensitization sites were applied to the backs of each rat. […] One hour later the rats were challenged intravenously with a solution containing 0.5% ovalbumin and 0.5% Evans blue dye in a saline vehicle. Twenty minutes later the rats were killed by carbon dioxide asphyxiation, the dorsal skin reflected and the blue wheal measured as the mean of the two largest perpendiculars. This mean was used to calculate the area of the wheal according to [A=π(d/2)^2 ]. The wheal area under the drug-treated site was used as an index of local topical activity and the distant site served as an index of systemic activity.

Test [2] concerns K^+ -Stimulated Ca^++ -mediated Contractions of Rabbit Aortic Strips. The test can be described thus: Potassium-Induced Calcium-Mediated Contraction of Aortic Strips. It counts as cell-based, New Zealand strain rabbits. The following applies: Oryctolagus cuniculus, read-out: IC50, K+-stimulated Ca++-mediated contractions. The source says:
New Zealand strain rabbits (1-1.5 kg) were sacrificed by cervical dislocation and the thoracic cavity was opened to expose a section of the aorta. A section of the aorta from the diaphragm to the aortic arch was isolated, dissected out and immediately placed in chilled Krebs bicarbonate buffer solution. A 2 inch section of the aorta was supported on a glass rod in a petri dish with chilled Krebs bicarbonate solution and cleaned of excess tissue. The aorta was then cut into helical strips (3×30 mm) and suspended from a FT03 isometric force displacement transducer coupled to a Beckman recorder. The tissue bath was filled with Krebs bicarbonate buffer maintained at 37° C. and bubbled with 95% 02 and 5% CO2. The helical strips were allowed to equilibrate for 1.5 to 2 hours with a 4 gram resting load. The tissues were dosed in a cumulative manner with 10 mM, 15 mM, 20 mM, 30 mM, 40 mM, 80 mM and 120 mM KCl. The tissues were washed several times after the KCl treatment and were allowed to equilibrate for 1-1.5 hours until a baseline equivalent to 4 grams tension was achieved. A second dose-response to KCl was repeated and again washed and allowed to equilibrate. […] Changes in grams tension were recorded.

For `CN(C)CCN(Cc1cccs1)c1ccccn1` [Methapyrilene, methapyrilene], the inhibition in vivo at 0.02 % in test [1] (Rattus norvegicus, Topical Dose 0.02%, read-out: Percent Inhibition) came to 8.9%. Further, the inhibition in vivo at 0.2 % in test [1] (Rattus norvegicus, Topical Dose 0.20%, read-out: Percent Inhibition) is 8.8%. In addition, the inhibition in vivo at 2 % in test [1] (Rattus norvegicus, Topical Dose 2.00%, read-out: Percent Inhibition) came to 37.4%. Further, the “Significance (P < .05) of inhibition” value in test [1] (Topical Dose 0.02%), in test [1] (Topical Dose 0.20%) and in test [1] (Topical Dose 2.00%) was “No” throughout. Further, the “activity in the PCA test (in words)” value in test [1] (topical) is “inactive”.

The IC50 is the concentration that inhibits the measured activity by half. As for `CN1CCC(=C2c3ccccc3C=Cc3ccccc32)CC1` [Cyproheptadine, cyproheptadine], the IC50 in test [2] was 3 µM.

For the origin of these results see patent publication US4444780A, “Method for treating atopic dermatitis” (priority 1982, dated 1984).
